PubChem BioAssay AID1259254 – NCATS | 2017
Shown is a random part of about 59,000 deposited reagents. In the full data, about 1,550 (2.6%) are marked active. 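G2 share is only a proxy for re-replication; each gene was hit by three separate siRNAs, and active genes were retested.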 The raw values are shown without normalisation. The numbers tell different reagents against one gene apart. Not given: the amount of reagent.

Screen: 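Finding genes that stop cells copying their DNA twice in one cycle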 (primary screen)
System: human HCT116 colorectal cancer cells
Knock-down reagent: single siRNA against human genes
Time to read-out: 3 days
Measured: 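Imaged Hoechst DNA stain sorts each cell into a cycle phase by DNA amount; per plate, G2 fraction set to 0% for non-targeting and 100% for GMNN siRNA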
Direction: G2 robust z-score and G2 cells, % of GMNN control: higher = more G2 cells, more excess DNA replication; raw share of cells in G2: higher = larger share of cells with G2 DNA content
Active means: 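An siRNA counts as active if its G2 robust z-score lies at least 5 MADs above the screen median; here such calls match roughly 38% of GMNN control or more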

no.	gene	siRNA no.	G2 robust z-score	G2 cells, % of GMNN control	raw share of cells in G2 (%)	Call
1	RTCB	1	-1.68	-8.86	0.431	inactive
2	RTCB	2	-0.903	-3.39	2.85	inactive
3	RTCB	3	0.601	7.2	5.57	inactive
4	OR2K2	1	-0.463	-0.29	4.3	inactive
5	OR2K2	2	-0.0534	2.59	5.06	inactive
6	OR2K2	3	-0.0741	2.45	4.15	inactive
7	PRUNE2	1	-0.386	0.248	3.69	inactive
8	PRUNE2	2	1.49	13.5	7.47	inactive
9	PRUNE2	3	-0.798	-2.65	1.92	inactive
10	TMT1A	1	-0.153	1.89	4.82	inactive
11	TMT1A	2	1.57	14	8.57	inactive
12	TMT1A	3	-1.48	-7.45	2.78	inactive
13	NELFCD	1	3.2	25.5	12.7	inactive
14	NELFCD	2	0.536	6.74	7.11	inactive
15	NELFCD	3	-0.315	0.748	3.44	inactive
16	BCAT1	1	-1.25	-5.79	2.75	inactive
17	BCAT1	2	-0.463	-0.287	4.97	inactive
18	BCAT1	3	-0.816	-2.77	2.96	inactive
19	TMEM125	1	-1.01	-4.15	2.61	inactive
20	TMEM125	2	0.103	3.7	4.27	inactive
21	TMEM125	3	-0.384	0.265	2.68	inactive
22	HBB	1	2.26	18.9	12.9	inactive
23	HBB	2	0.252	4.74	5.94	inactive
24	HBB	3	3.27	26	14.5	inactive
25	AP2M1	1	1.23	11.6	10.8	inactive
26	AP2M1	2	-0.366	0.39	4.23	inactive
27	AP2M1	3	0.516	6.6	6.11	inactive
28	TSLIG3B	1	-0.144	1.95	5	inactive
29	TSLIG3B	2	1.08	10.6	10.5	inactive
30	TSLIG3B	3	0.357	5.48	7.1	inactive

In a second layout: entries from further up.
| gene | siRNA no. | G2 robust z-score | G2 cells, % of GMNN control | raw share of cells in G2 (%) | Call |
| --- | --- | --- | --- | --- | --- |
| NELFCD | 1 | 3.2 | 25.5 | 12.7 | inactive |
| NELFCD | 2 | 0.536 | 6.74 | 7.11 | inactive |
